Binding data for six substances are collected here from article doi:10.1101/2025.08.11.669646.

Amino acid sequences for entries named in this document (tags omitted). A change or cut given only in a name is not applied to a line headed by its entry. Chains listed by the source or under a name are the forms on record and can include a tag or linker.
FLAG-TurboID-SMNΔ7 (Q16637, form named): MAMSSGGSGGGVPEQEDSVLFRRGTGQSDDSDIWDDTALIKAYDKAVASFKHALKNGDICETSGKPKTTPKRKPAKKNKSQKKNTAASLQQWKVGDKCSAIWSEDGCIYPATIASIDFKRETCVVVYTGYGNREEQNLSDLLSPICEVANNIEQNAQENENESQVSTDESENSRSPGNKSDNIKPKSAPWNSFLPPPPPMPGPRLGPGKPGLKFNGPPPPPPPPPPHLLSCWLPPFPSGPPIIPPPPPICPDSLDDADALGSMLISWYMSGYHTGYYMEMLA
UniProt P18583: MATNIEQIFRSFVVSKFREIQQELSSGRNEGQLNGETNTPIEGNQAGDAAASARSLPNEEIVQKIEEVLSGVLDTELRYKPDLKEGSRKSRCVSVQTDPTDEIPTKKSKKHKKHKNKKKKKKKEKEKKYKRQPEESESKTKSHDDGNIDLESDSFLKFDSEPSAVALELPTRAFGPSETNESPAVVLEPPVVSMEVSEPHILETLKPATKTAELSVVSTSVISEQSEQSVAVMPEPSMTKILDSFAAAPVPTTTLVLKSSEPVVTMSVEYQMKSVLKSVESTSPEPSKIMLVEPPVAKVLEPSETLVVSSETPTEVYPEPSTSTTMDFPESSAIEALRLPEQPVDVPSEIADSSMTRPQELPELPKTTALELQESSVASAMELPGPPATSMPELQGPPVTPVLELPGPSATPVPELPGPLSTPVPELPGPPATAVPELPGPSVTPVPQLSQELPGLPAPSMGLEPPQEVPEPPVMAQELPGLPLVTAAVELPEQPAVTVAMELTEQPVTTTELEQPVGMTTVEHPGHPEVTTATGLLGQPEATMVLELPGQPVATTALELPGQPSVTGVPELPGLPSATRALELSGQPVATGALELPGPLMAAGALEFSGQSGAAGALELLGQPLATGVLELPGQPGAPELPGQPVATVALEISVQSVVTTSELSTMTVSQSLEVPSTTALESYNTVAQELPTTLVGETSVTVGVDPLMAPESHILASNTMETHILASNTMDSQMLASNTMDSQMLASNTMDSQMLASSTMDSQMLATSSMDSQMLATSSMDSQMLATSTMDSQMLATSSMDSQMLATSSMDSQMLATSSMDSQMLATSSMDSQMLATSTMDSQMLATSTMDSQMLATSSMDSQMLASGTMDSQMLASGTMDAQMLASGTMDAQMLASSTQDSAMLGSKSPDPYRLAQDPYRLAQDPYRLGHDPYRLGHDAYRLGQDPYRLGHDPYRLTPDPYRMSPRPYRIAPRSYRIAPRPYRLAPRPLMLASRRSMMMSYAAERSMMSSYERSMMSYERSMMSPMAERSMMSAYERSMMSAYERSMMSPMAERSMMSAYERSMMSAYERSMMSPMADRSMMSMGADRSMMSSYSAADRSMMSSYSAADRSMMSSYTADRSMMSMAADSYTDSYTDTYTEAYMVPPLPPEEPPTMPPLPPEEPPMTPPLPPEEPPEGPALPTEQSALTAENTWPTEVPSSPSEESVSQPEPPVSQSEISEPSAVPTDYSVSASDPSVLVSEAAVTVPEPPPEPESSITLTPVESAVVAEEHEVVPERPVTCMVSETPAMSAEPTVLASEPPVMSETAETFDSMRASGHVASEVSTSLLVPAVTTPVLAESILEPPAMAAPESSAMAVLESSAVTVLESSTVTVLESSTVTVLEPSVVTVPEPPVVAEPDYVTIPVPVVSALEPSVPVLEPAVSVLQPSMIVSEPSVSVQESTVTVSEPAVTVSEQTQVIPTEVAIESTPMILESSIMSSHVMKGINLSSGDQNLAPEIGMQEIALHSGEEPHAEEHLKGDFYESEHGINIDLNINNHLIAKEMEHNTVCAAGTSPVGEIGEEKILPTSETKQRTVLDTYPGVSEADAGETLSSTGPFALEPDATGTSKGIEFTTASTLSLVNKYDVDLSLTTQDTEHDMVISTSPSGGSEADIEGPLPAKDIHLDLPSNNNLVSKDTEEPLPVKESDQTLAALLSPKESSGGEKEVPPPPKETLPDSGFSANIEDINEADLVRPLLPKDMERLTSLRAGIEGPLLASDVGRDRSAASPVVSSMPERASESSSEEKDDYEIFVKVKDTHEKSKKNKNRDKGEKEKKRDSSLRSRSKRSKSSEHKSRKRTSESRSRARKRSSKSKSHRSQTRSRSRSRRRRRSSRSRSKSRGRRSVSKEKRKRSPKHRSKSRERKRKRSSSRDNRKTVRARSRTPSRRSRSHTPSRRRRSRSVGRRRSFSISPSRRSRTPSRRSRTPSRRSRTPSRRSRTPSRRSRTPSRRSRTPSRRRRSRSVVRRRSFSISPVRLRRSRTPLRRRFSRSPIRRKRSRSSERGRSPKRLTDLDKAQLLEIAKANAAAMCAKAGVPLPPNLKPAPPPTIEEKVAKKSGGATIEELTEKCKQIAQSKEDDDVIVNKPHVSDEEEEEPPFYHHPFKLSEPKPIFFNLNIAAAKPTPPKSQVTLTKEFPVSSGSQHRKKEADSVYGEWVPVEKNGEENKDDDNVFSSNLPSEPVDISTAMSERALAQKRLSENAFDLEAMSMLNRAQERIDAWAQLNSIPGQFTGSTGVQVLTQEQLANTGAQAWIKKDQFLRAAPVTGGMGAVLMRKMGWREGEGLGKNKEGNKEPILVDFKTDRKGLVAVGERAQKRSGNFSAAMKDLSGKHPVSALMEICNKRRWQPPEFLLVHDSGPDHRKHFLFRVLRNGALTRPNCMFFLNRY
UniProt Q9H840: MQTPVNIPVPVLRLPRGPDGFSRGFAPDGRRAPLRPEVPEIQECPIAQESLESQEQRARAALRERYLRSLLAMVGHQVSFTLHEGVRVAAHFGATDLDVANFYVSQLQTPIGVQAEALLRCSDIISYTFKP
UniProt Q9BSJ2: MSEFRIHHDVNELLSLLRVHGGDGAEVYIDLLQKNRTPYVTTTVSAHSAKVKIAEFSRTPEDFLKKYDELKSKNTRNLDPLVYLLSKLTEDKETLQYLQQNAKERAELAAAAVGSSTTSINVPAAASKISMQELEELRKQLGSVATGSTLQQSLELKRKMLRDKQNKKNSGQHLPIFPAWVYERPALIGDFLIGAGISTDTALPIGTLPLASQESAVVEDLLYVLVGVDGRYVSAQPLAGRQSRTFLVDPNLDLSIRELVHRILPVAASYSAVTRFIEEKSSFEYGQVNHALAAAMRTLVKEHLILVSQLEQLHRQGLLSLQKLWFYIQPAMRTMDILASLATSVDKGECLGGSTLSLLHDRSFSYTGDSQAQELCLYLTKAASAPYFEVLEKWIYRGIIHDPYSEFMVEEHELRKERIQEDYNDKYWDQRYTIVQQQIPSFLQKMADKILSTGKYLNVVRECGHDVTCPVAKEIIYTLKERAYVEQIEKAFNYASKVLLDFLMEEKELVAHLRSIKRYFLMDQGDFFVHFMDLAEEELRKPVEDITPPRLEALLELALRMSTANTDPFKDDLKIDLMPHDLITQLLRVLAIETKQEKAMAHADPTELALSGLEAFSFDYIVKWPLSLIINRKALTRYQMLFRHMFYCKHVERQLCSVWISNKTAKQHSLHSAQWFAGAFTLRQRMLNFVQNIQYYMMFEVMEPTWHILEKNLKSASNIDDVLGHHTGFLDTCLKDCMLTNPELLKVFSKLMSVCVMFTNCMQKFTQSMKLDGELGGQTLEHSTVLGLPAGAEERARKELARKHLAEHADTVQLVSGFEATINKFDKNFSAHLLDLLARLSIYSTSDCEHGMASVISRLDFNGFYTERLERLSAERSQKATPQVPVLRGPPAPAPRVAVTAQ
UniProt O75165: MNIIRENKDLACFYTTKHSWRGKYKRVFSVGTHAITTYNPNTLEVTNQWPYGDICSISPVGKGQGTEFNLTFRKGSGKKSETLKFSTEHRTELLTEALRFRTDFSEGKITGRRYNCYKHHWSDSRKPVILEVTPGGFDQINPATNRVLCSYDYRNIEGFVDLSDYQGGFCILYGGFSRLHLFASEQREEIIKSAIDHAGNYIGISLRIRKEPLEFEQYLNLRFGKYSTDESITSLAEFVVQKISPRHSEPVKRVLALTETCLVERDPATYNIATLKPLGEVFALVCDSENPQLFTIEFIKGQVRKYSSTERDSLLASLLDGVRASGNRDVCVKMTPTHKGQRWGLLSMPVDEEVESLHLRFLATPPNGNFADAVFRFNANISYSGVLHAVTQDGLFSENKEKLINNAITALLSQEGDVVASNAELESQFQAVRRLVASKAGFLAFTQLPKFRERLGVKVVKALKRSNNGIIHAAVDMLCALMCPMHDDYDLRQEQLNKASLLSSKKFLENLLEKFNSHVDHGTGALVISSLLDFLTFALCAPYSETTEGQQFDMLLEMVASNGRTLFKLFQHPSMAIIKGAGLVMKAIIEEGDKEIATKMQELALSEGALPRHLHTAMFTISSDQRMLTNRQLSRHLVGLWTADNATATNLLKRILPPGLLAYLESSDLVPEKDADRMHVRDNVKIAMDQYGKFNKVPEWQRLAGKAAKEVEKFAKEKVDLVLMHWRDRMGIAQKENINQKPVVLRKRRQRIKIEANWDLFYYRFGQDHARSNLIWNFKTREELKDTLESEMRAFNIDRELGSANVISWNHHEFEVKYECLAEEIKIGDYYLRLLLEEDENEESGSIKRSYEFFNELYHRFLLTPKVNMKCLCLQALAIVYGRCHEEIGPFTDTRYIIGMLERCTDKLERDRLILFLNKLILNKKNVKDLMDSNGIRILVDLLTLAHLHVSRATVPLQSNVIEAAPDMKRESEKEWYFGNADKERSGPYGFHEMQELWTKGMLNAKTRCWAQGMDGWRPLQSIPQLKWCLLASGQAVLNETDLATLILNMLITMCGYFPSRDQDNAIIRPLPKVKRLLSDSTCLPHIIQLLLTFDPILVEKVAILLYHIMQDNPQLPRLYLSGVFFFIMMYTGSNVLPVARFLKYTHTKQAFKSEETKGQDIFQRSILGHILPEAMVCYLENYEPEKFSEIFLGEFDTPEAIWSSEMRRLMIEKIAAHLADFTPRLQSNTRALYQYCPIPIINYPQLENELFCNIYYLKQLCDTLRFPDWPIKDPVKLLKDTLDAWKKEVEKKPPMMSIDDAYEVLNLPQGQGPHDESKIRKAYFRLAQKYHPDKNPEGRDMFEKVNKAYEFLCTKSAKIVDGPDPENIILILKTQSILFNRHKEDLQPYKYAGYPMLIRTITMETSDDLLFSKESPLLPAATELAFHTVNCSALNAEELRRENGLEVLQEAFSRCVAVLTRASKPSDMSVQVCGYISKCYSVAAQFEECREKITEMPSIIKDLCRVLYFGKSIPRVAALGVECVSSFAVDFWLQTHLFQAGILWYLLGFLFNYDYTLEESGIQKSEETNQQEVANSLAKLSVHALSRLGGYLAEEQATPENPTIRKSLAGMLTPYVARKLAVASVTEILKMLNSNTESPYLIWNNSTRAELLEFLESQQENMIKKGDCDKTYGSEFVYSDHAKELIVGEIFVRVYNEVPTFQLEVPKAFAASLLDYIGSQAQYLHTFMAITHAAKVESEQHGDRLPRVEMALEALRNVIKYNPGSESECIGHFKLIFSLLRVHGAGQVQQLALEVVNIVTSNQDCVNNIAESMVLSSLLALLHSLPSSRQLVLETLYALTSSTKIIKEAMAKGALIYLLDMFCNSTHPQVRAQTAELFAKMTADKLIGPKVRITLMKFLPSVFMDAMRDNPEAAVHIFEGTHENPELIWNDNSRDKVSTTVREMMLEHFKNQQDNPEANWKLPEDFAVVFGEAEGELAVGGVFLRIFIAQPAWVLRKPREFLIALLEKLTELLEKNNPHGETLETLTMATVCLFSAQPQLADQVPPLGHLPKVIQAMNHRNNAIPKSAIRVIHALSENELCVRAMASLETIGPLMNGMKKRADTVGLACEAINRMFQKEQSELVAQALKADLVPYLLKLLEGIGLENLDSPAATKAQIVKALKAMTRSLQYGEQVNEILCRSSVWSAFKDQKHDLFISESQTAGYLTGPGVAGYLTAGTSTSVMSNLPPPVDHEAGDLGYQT

The target of this assay is FLAG-TurboID-SMNΔ7 (human) (UniProt Q16637). Nature of the assay: proximity labelling.

Results are given in words; binding and its absence hold for the method and conditions named. In cells and extracts the contact can be indirect. A yes stands for co-enrichment or nearness to the bait. Other partners may have been found.

As to “Protein SON (from UniProt P18583 1-2426)”, the binding entry is on record as “binds”.
On to KIF5B (from UniProt P33176 1-963), for which the binding entry was “binds”.
Next, TAF6 (from UniProt P49848 1-677): “binds”.
For the substance GEMIN7 (from UniProt Q9H840 1-131), the binding entry is recorded as “binds”.
On to TUBGCP2 (from UniProt Q9BSJ2 1-902), for which the binding result was “binds”.
In the case of DNAJC13 (from UniProt O75165 1-2243), the binding result is “binds”.
